From the supplement of paper PMC10849652
The list shows a part of the results.

Chains of the proteins cited; added tags and fusions are not shown. Lines headed by an entry give the natural chain unless they say otherwise; changes in a name come on top.
UniProt P78364: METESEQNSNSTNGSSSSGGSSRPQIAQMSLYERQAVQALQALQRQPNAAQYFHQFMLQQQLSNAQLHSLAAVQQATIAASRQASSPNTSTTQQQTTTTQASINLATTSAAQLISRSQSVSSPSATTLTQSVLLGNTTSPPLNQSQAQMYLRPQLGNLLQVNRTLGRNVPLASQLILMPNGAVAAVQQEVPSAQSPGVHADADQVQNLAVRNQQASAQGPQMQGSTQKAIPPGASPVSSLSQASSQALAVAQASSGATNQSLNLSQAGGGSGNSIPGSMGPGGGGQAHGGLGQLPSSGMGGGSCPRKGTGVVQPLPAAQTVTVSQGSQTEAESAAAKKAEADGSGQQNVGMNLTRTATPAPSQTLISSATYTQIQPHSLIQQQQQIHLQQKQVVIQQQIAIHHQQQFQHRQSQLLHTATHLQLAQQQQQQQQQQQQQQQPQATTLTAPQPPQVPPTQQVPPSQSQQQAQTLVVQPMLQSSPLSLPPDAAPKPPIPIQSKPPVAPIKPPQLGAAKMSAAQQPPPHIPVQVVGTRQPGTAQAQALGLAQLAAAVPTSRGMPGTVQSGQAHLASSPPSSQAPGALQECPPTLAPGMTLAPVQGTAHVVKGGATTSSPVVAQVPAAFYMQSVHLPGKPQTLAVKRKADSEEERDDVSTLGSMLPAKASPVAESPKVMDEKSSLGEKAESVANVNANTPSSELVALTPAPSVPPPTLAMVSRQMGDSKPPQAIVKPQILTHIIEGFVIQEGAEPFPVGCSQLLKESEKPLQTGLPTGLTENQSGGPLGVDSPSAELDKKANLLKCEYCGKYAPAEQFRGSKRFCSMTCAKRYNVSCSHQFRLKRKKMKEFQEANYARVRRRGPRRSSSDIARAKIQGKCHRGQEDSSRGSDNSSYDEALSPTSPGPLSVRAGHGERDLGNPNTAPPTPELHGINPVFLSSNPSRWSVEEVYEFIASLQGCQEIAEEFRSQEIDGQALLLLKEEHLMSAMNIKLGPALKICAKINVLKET
UniProt Q9H490: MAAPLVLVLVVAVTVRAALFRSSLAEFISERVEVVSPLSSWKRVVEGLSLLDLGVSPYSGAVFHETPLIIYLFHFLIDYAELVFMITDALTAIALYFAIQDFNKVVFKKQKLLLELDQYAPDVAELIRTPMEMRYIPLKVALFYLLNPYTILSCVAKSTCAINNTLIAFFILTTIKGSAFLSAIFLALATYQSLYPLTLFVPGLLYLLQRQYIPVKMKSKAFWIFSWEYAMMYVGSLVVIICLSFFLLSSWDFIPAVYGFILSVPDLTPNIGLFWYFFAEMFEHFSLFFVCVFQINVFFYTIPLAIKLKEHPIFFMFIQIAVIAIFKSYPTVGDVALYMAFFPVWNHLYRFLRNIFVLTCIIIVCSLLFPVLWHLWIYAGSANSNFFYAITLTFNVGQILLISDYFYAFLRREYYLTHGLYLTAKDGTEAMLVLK
UniProt O75928, whole entry, looked up: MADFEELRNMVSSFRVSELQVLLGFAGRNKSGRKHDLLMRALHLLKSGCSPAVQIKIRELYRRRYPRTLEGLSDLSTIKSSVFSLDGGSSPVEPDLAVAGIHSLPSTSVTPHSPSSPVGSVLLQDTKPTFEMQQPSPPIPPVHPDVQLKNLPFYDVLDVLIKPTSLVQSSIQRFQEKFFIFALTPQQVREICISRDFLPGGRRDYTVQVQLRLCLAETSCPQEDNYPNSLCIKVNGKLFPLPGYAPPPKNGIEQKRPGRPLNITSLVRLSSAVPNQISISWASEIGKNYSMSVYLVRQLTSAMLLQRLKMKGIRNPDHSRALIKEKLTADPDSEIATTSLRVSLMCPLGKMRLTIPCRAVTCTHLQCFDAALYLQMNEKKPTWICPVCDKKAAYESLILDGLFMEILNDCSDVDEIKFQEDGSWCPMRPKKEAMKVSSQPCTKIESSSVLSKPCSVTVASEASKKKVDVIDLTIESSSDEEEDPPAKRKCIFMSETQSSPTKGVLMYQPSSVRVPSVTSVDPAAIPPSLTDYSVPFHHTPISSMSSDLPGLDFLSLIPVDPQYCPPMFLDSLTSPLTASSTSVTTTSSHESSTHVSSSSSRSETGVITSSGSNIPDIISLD
UniProt Q99453, whole entry, looked up: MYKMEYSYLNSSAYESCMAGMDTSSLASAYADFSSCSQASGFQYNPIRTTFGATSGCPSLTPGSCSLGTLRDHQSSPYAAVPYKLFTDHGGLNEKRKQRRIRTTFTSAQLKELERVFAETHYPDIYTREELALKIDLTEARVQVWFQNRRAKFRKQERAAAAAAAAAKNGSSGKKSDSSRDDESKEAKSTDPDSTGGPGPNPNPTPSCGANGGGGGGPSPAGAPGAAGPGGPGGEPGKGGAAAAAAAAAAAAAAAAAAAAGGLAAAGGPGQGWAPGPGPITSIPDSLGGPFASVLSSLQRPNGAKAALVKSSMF
UniProt Q8NDX5: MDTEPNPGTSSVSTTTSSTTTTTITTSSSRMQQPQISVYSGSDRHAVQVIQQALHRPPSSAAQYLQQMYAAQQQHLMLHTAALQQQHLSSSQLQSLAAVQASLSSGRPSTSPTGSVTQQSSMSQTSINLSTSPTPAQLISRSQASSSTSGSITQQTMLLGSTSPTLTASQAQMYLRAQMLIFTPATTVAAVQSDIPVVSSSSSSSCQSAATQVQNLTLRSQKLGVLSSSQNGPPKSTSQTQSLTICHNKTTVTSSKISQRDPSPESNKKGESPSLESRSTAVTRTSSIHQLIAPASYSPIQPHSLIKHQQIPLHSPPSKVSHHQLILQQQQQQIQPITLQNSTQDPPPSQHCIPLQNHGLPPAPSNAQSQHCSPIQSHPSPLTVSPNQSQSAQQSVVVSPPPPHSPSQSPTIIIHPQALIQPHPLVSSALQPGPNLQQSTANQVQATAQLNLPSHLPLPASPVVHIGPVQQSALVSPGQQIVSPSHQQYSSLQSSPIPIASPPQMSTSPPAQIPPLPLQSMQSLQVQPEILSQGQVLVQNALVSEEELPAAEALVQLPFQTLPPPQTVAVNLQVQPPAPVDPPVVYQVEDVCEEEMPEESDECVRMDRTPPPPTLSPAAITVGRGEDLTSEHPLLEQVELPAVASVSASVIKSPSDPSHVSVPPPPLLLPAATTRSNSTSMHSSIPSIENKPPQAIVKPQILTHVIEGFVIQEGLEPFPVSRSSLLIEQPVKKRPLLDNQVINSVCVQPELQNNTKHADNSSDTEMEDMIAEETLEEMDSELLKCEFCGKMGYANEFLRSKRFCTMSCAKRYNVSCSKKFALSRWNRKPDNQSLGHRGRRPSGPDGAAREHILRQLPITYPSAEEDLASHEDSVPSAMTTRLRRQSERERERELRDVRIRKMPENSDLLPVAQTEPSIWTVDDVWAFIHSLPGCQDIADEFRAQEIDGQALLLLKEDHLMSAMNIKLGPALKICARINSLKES
UniProt Q53GA4: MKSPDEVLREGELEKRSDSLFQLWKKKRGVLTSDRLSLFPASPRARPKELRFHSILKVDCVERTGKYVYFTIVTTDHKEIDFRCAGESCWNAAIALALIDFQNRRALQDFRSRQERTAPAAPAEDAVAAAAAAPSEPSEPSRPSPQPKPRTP
UniProt Q8TBF5: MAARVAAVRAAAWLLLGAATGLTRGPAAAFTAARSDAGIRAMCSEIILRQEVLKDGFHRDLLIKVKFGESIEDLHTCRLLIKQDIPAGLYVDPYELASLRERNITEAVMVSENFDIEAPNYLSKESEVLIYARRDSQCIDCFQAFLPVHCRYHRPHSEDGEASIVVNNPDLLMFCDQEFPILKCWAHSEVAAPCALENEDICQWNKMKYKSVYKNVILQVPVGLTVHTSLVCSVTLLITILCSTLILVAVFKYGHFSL
UniProt Q9UPP1: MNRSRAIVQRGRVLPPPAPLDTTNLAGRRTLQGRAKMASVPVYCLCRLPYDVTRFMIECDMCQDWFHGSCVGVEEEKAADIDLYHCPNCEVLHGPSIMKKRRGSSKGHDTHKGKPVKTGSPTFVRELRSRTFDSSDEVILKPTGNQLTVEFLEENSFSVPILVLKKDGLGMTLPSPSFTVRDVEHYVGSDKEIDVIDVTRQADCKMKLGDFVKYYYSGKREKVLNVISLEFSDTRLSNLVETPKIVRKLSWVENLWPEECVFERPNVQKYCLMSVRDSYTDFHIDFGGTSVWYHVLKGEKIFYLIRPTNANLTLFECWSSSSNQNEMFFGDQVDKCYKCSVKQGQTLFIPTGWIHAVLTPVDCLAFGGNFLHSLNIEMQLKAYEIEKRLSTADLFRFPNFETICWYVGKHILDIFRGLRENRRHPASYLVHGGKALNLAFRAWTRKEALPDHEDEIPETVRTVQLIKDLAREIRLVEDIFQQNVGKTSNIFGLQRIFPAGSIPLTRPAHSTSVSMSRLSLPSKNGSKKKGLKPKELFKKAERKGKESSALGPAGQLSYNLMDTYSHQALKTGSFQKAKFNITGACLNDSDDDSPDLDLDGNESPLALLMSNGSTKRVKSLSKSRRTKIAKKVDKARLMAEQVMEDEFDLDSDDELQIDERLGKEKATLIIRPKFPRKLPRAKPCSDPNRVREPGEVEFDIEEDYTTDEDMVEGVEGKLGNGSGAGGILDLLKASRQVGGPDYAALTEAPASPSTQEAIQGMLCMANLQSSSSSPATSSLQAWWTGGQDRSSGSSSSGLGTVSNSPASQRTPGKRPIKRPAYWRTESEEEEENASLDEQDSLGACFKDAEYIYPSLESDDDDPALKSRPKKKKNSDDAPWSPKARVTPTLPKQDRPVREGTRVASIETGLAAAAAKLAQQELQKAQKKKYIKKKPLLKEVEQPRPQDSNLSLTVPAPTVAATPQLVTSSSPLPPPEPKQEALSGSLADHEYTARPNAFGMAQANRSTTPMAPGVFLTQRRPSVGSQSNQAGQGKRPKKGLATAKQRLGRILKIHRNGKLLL
UniProt P48736: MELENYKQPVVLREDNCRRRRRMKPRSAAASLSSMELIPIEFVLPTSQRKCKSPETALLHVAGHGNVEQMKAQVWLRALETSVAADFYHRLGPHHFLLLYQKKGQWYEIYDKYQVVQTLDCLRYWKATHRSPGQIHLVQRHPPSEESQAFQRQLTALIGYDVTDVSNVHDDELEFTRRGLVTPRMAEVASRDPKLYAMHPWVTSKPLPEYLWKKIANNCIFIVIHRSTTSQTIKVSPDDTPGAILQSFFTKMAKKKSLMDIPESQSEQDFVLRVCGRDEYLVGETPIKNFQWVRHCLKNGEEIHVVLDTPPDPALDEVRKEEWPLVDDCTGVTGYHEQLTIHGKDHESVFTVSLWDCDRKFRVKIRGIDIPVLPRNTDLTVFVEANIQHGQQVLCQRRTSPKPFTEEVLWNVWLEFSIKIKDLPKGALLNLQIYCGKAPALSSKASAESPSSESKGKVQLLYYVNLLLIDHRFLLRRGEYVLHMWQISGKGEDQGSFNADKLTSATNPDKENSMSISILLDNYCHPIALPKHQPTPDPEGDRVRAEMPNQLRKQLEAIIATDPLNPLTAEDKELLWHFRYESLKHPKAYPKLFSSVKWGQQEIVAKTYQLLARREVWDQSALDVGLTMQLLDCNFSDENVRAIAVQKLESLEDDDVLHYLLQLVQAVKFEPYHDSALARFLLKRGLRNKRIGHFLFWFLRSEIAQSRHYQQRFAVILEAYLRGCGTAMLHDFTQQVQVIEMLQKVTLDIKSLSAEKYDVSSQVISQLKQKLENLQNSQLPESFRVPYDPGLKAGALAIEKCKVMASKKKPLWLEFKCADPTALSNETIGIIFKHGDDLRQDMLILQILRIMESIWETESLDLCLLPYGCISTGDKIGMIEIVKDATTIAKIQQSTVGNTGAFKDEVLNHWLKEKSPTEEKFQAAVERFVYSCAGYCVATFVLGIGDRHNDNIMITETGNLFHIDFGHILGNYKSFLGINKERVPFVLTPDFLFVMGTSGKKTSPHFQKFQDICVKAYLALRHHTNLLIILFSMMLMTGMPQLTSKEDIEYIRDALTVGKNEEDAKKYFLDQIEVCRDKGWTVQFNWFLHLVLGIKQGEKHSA
UniProt Q6NSJ2: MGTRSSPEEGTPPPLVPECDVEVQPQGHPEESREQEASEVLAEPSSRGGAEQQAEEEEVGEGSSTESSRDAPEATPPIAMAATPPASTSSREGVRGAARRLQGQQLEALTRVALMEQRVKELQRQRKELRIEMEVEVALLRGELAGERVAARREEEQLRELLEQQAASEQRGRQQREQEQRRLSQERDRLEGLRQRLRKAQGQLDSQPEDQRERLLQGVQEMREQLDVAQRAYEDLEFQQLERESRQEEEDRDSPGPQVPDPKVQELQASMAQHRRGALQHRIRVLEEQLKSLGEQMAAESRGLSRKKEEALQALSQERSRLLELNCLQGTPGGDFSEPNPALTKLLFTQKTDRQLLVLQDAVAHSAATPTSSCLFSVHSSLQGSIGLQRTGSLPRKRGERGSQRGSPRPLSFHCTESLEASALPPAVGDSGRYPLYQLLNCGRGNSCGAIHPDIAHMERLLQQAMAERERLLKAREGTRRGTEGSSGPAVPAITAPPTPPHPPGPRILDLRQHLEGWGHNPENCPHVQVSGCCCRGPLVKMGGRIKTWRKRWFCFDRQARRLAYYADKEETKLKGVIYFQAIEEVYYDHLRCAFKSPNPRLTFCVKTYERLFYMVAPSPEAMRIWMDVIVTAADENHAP

Experiments:
Assay in all cases: log2 fold change, soluble protein after heating vs DMSO (PISA); higher = thermal stabilisation; K562 lysate, 10 uM; active = over 0.2 and 3.5 SD of the protein, either way, in both replicates (recomputed)
vemurafenib = compound: CCCS(=O)(=O)Nc1ccc(F)c(C(=O)c2c[nH]c3ncc(-c4ccc(Cl)cc4)cc23)c1F [vemurafenib]
Summary of the method: (§1)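 K562 pellets were dounce-homogenised in PBS pH 7.4 containing 1 mM MgCl2, and the crude extract, at 1 mg/mL protein, was exposed to 10 μM compound for 30 min. Aliquots were heated for 3 min across 48°C-58°C, pooled, brought to 0.5% NP-40 at 4°C and spun at 21,000xg for 90 min, with the supernatant taken as soluble protein. TMTpro 16plex LC-MS/MS with equalised channel sums quantified that protein. Values are log-two fold changes in thermal stability relative to solvent controls, taken from duplicates.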

barasertib = compound: CCN(CCCOc1ccc2c(Nc3cc(CC(=O)Nc4cccc(F)c4)[nH]n3)ncnc2c1)CCOP(=O)(O)O [barasertib]
Summary of the method: as §1

[1] = compound: CC[C@@H]1C(=O)N(C)c2cnc(Nc3ccc(C(=O)NC4CCN(C)CC4)cc3OC)nc2N1C1CCCC1
Summary of the method: as §1

saracatinib = compound: CN1CCN(CCOc2cc(OC3CCOCC3)c3c(Nc4c(Cl)ccc5c4OCO5)ncnc3c2)CC1 [saracatinib]
Summary of the method: as §1

sotrastaurin = compound: CN1CCN(c2nc(C3=C(c4c[nH]c5ccccc45)C(=O)NC3=O)c3ccccc3n2)CC1 [sotrastaurin]
Summary of the method: as §1

defactinib = compound: CNC(=O)c1ccc(Nc2ncc(C(F)(F)F)c(NCc3nccnc3N(C)S(C)(=O)=O)n2)cc1 [defactinib]
Summary of the method: as §1

[2] = compound: CNc1nc(-c2ccc3c(N)n[nH]c3c2)cc(N2C[C@@H](C(=O)NC3CCCCC3)CC[C@H]2C)n1
Summary of the method: as §1

encorafenib = compound: COC(=O)N[C@@H](C)CNc1nccc(-c2cn(C(C)C)nc2-c2cc(Cl)cc(NS(C)(=O)=O)c2F)n1 [encorafenib]
Summary of the method: as §1

[3] = compound: COC(=O)[C@H](CCSC)NC(=O)C1=C(C=C(C=C1)NC[C@H](CS)N)C2=CC=CC=C2
Summary of the method: as §1

alisertib = compound: COc1cc(Nc2ncc3c(n2)-c2ccc(Cl)cc2C(c2c(F)cccc2OC)=NC3)ccc1C(=O)O [alisertib]
Summary of the method: as §1

gefitinib = compound: COc1cc2ncnc(Nc3ccc(F)c(Cl)c3)c2cc1OCCCN1CCOCC1 [gefitinib]
Summary of the method: as §1

[4] = compound: CCCS(=O)(=O)Nc1ccc(F)c(C(=O)c2c[nH]c3ncc(Cl)cc23)c1F
Summary of the method: as §1

volasertib = compound: CC[C@@H]1C(=O)N(C)c2cnc(Nc3ccc(C(=O)N[C@H]4CC[C@H](N5CCN(CC6CC6)CC5)CC4)cc3OC)nc2N1C(C)C [volasertib]
Summary of the method: as §1

[5] = compound: CCn1c(C(=O)N(C2CC2)C2CC2)cc2c3c(ncn3C)c(Nc3cc(C)n(C)n3)nc21
Summary of the method: as §1

Tubastatin A = compound: CN1CCc2c(c3ccccc3n2Cc2ccc(C(=O)NO)cc2)C1 [Tubastatin A]
Summary of the method: as §1

[6] = compound: CNC(=O)C1=CC=CC=C1NC2=NC(=NC=C2Cl)NC3=C(C=C(C=C3)N4CCOCC4)OC
Summary of the method: as §1

[7] = compound: COc1cc2nc(-c3cc(F)ccc3O)nc(N[C@@H]3CNC[C@H]3C(C)(C)O)c2cc1OC
Summary of the method: as §1

[8] = compound: CCn1cc(-c2ccnc3[nH]c(-c4cccc(CN(C)C)c4)cc23)c(-c2ccc(NC(=O)N(C)C)cc2)n1
Summary of the method: as §1

[9] = compound: CN1CCC(CNc2ccc3ncc(-c4cccc(OC(F)(F)F)c4)n3n2)CC1
Summary of the method: as §1

alvocidib = compound: CN1CC[C@H](c2c(O)cc(O)c3c(=O)cc(-c4ccccc4Cl)oc23)[C@H](O)C1 [alvocidib]
Summary of the method: as §1

Target	log2 fold change (vemurafenib)	log2 fold change (barasertib)	log2 fold change [1]	log2 fold change (saracatinib)	log2 fold change (sotrastaurin)	log2 fold change (defactinib)	log2 fold change [2]	log2 fold change (encorafenib)	log2 fold change [3]	log2 fold change (alisertib)	log2 fold change (gefitinib)	log2 fold change [4]	log2 fold change (volasertib)	log2 fold change [5]	log2 fold change (Tubastatin A)	log2 fold change [6]	log2 fold change [7]	log2 fold change [8]	log2 fold change [9]	log2 fold change (alvocidib)
PHC1 (UniProt P78364)	inactive: 0.042	inactive: 0.034	inactive: 0.097	inactive: 0.066	inactive: -0.354	inactive: 0.005	inactive: 0.184	inactive: 0.059	inactive: -0.062	inactive: -0.017	inactive: -0.101									
PIGN (UniProt O95427)	inactive: 0.045		inactive: 0.053	inactive: -0.038		inactive: -0.004	inactive: 0.076	inactive: 0.034	inactive: -0.01			inactive: -0.135	inactive: -0.022	inactive: -0.023	inactive: 0.091	inactive: 0.073	inactive: 0.089			
PKMYT1 (UniProt Q99640)	inactive: 0.004		inactive: 0.076		inactive: 0.115	inactive: 0.045	inactive: -0.06	inactive: 0.023	inactive: 0.117	inactive: -0.067	inactive: 0.033			inactive: -0.048	inactive: 0.244			inactive: -0.12	inactive: -0.031	inactive: 0.01
PIGU (UniProt Q9H490)	inactive: 0.043	inactive: 0.057		inactive: 0.028	inactive: 0.098	inactive: 0.075	inactive: -0.014			inactive: 0.023	inactive: -0.011	inactive: 0.026	inactive: -0.001	inactive: 0.016	inactive: 0.126	inactive: -0.042	inactive: -0.027	inactive: -0.066	inactive: -0.054	inactive: -0.018
PIAS2 (UniProt O75928)	inactive: -0.263		inactive: -0.026	inactive: 0.044	inactive: -0.033	inactive: -0.348	inactive: -0.002	inactive: 0.006	inactive: -0.041	inactive: -0.021	inactive: -0.091			inactive: 0.003	inactive: -0.092	inactive: 0.006				
PHOX2B (UniProt Q99453)	inactive: 0.151	inactive: -0.111	inactive: -0.095	inactive: 0.252	inactive: 0.155	inactive: -0.078	inactive: -0.17	inactive: 0.055	inactive: 0.007	inactive: 0.076	inactive: 0.032									
PHC3 isoform 7 (UniProt Q8NDX5)	inactive: 0.03		inactive: 0.125	inactive: -0.1	inactive: 0.357	inactive: 0.044	inactive: 0.02	inactive: 0.229	inactive: -0.135	inactive: 0.136	inactive: 0.025	inactive: 0.027	inactive: -0.053			inactive: 0.084	inactive: 0.058	inactive: -0.167	inactive: 0.007	inactive: -0.022
PHLDA2 (UniProt Q53GA4)	inactive: -0.252			inactive: 0.078	inactive: 0.019	inactive: -0.128	inactive: 0.151							inactive: 0.047	inactive: -0.004	inactive: 0.198				
PIGX isoform 2 (UniProt Q8TBF5)		inactive: -0.029	inactive: 0.077	inactive: 0.11	inactive: -0.029		inactive: -0.062	inactive: 0.06	inactive: -0.117	inactive: -0.128	inactive: 0.22	inactive: 0.051	inactive: -0.003	inactive: -0.202	inactive: -0.032		inactive: -0.053	inactive: -0.169	inactive: 0.153	inactive: 0.089
PIP5K1C isoform 3 (UniProt O60331)		inactive: -0.03	inactive: 0.153	inactive: -0.059	inactive: 0.051		inactive: -0.074	inactive: -0.078	inactive: 0.015	inactive: -0.008	inactive: -0.092	inactive: -0.02	inactive: -0.032	inactive: 0.035	inactive: -0.025	inactive: -0.034	inactive: 0.03			
PHF8 (UniProt Q9UPP1)	inactive: 0.125		inactive: 0.191		inactive: 0.117	inactive: -0.096		inactive: 0.133	inactive: 0.193	inactive: 0.106	inactive: -0.014			inactive: -0.11	inactive: 0.025	inactive: -0.036		inactive: 0.245	inactive: 0.064	inactive: -0.194
PIK3CG (UniProt P48736)	inactive: 0.028	inactive: 0.046	inactive: 0.004	inactive: 0.028	inactive: 0.051	inactive: 0.009	inactive: -0.015	inactive: 0.046	inactive: 0.041	inactive: 0.001				inactive: 0.006	inactive: -0.044	inactive: 0.04		active: -0.276	active: 0.289	inactive: -0.033
PLAU (UniProt P00749)			inactive: 0.033	inactive: 0.249			inactive: -0.116	inactive: 0.056	inactive: -0.009	inactive: -0.122	inactive: 0.145	inactive: -0.416	inactive: 0.149	inactive: 0.143	inactive: -0.165	inactive: 0.049	inactive: 0.336			
PHLDB3 (UniProt Q6NSJ2)					inactive: -0.215											inactive: 0.127				
PGM3 (UniProt D6RCQ8)		inactive: 0.183										inactive: -0.235	inactive: -0.011				inactive: -0.104			
